The list shows a part of the results.
target: T1, OsSMF1 (Oryza sativa, UniProt Q6ZLB0 1-436); experiment: protein-binding microarray (RPBM); PBS, 2% BSA, 51.3 ng/ul salmon testes DNA, 50 uM zinc acetate, 200 nM TF, 25 C, 1 h; high values mean tight binding; conditions: protein: recombinant; tags: N-terminal polyhistidine and DsRed monomer fusion (pET32a); chain copies: 2; label: CyDye5-dUTP incorporated in the synthesized complementary strand; 3' TTTTT single-stranded linker to array surface; dsDNA, one strand shown
T1 sequence: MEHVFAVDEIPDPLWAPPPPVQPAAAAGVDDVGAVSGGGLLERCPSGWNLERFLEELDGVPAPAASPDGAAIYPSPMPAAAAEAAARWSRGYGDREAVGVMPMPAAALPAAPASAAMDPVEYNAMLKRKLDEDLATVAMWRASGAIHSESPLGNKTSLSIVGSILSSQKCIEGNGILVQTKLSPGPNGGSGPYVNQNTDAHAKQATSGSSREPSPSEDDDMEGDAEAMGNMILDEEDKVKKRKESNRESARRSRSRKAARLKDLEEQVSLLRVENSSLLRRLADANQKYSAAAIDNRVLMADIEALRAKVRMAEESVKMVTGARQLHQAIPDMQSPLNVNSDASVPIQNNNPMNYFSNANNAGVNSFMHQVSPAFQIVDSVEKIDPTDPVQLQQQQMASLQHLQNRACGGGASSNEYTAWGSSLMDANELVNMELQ
In short: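 Ni–NTA purification followed expression in E. coli BL21-CodonPlus of transcription factors fused N-terminally to a polyhistidine tag and DsRed. At 200 nM in PBS with 2% BSA, salmon testes DNA and 50 µM zinc acetate, the protein was incubated for 1 h at 25 °C with a custom Agilent array that had been primer-extended with Cy5-dUTP and blocked with 2% BSA. After washing, the array was read on an Axon 4000B scanner. The binding signal is per-feature fluorescence intensity in arbitrary units.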

Compared with “CCTGCTCCGGTGGCAGCTGCGGCGGATCCGAGTCCCATCCCGGAGTCACCTAGTGCAG”, “AAGTCGAAGAAGGGGAACCCCTCCTCCAACCCGGGCCTCTCGGAGTCACCTAGTGCAG” is lower in binding signal: 3460 fluorescence intensity (a.u.) for the first, 3140 fluorescence intensity (a.u.) for the second.

Going from “CTCTCTGCCATCTCATCCACAGTGACCTCTCTCTCCAAGACGGAGTCACCTAGTGCAG” to “CTCCGGCCGGCCACTCCCCTCCACGGAGAACTTTCCCCGACGGAGTCACCTAGTGCAG”, the binding signal rises from 4170 fluorescence intensity (a.u.) to 20800 fluorescence intensity (a.u.).

First: AACAAAATCTCATCATCCCCTCTCGCTCTAGCATATGTCGCGGAGTCACCTAGTGCAG
Second: AATGGTTGAATCAAATACTACCAGTACCGGTCTGATGCCACGGAGTCACCTAGTGCAG
The binding signal of the first is higher: 3470 fluorescence intensity (a.u.) for the first, 3270 fluorescence intensity (a.u.) for the second.

First: GCAGTGCCGCCCCTACGTCACGCGCGGGGACTGCGTCGCGCGGAGTCACCTAGTGCAG
Second: TTGTGAATAAAACTTTTATATACGTGTTCTTAGTGATCTACGGAGTCACCTAGTGCAG
The binding signal of the first is higher: 5020 fluorescence intensity (a.u.) for the first, 3230 fluorescence intensity (a.u.) for the second.

Compared with “AGTTGCTTGTATATATGCTGAAGTAAGAAGTGAACTGTCGCGGAGTCACCTAGTGCAG”, “AACAGGAAGGCGCACCGGAGGACACGTACCACGGCGGAGCCGGAGTCACCTAGTGCAG” is higher in binding signal: 3520 fluorescence intensity (a.u.) for the first, 4240 fluorescence intensity (a.u.) for the second.

Compared with “GCTGTCGTGGACCTTGCCGCGTCGCGACACGTCAGCCCGACGGAGTCACCTAGTGCAG”, “CTATGGTGTTGTGATTTGTGAATACTAAAACTAACTTCTCCGGAGTCACCTAGTGCAG” is lower in binding signal: 25700 fluorescence intensity (a.u.) for the first, 4130 fluorescence intensity (a.u.) for the second.

First: GCAGAAACACGTCAATCTTGTGCTCTTGTCATCAATATTTCGGAGTCACCTAGTGCAG
Second: GCTCCGCTCCCGCCGGCCATCTTGGCCACTTCCACGCCCGCGGAGTCACCTAGTGCAG
The binding signal of the first is higher: 6390 fluorescence intensity (a.u.) for the first, 3310 fluorescence intensity (a.u.) for the second.

Going from “CTACTGCAGCCTCTGAGAATTACAGAAAGCGAAGGTATGTCGGAGTCACCTAGTGCAG” to “AATTGGAACATTCATTTCTGACACACGGAACATTTAATTTCGGAGTCACCTAGTGCAG”, the binding signal falls from 35400 fluorescence intensity (a.u.) to 3520 fluorescence intensity (a.u.).

Compared with “TGAATTGGTAAGGCCGAACAGGCCTGTCAATCCAGCCCATCGGAGTCACCTAGTGCAG”, “GCGGCGGCACACCGCCGGTGACTCGCCGCCGGTGACGACGCGGAGTCACCTAGTGCAG” is lower in binding signal: 22900 fluorescence intensity (a.u.) for the first, 4280 fluorescence intensity (a.u.) for the second.

First: TTACCTGCTGACCAACCGACCTTGCAAAGGAGGCTTATATCGGAGTCACCTAGTGCAG
Second: AATGTAGGATGATGTGGCGGTTTATAACATCAAGTGTACTCGGAGTCACCTAGTGCAG
The binding signal of the first is lower: 3610 fluorescence intensity (a.u.) for the first, 8110 fluorescence intensity (a.u.) for the second.

Going from “CCCCGCTGCTTGTCACGCTCTCGTTGGTCGATCACTCCATCGGAGTCACCTAGTGCAG” to “TGAGTGGTTTTGTAAGTGGTTTAGGCTGATGTGGCAGGTTCGGAGTCACCTAGTGCAG”, the binding signal rises from 3250 fluorescence intensity (a.u.) to 15400 fluorescence intensity (a.u.).

Compared with “CTTACTACTTGTGCTACCCTAGGGCAGCTCAAAATAGTGGCGGAGTCACCTAGTGCAG”, “AGTCGTACTTTCTACCAGCATTTGCAGCAGCTGTGAAATGCGGAGTCACCTAGTGCAG” is higher in binding signal: 24100 fluorescence intensity (a.u.) for the first, 29900 fluorescence intensity (a.u.) for the second.

First: CATTATCTGGTTGATGATGGTGCACGTGTGTATGCATTAACGGAGTCACCTAGTGCAG
Second: CGCCGTGGAAGAATATGATCACCGGGAACGGCTCCGCCGCCGGAGTCACCTAGTGCAG
The binding signal of the first is lower: 4760 fluorescence intensity (a.u.) for the first, 12000 fluorescence intensity (a.u.) for the second.

Going from “TCGTTCACTTCCCGATTTCTATTCAGTCTAGTCACACCGTCGGAGTCACCTAGTGCAG” to “CGAACATCTGGCGGTCGACGCGGCGGGACGCGATGGCGGCCGGAGTCACCTAGTGCAG”, the binding signal falls from 5510 fluorescence intensity (a.u.) to 3140 fluorescence intensity (a.u.).

First: CTATTGCAAATTGCAATGCTGTATATGCACTTCATTAGAACGGAGTCACCTAGTGCAG
Second: GTTTCTATTATTTCATGGCTTGATGGGGACTCCATTGGTGCGGAGTCACCTAGTGCAG
The binding signal of the first is higher: 54100 fluorescence intensity (a.u.) for the first, 3350 fluorescence intensity (a.u.) for the second.

Compared with “AAACCGGCTGTCTGCTCATCCATTCAACATGGAGCCTTGCCGGAGTCACCTAGTGCAG”, “ATCATGGCCAATCCACACTTGTTGTTGTTCTTTCCCTTCGCGGAGTCACCTAGTGCAG” is lower in binding signal: 3230 fluorescence intensity (a.u.) for the first, 3180 fluorescence intensity (a.u.) for the second.

Going from “CATCCTAGTGTCCAGATTCATTGTACTAGGATGTGTCACACGGAGTCACCTAGTGCAG” to “CATCTGAAATTGCCCTTGCTATTTCAGTTAGTACTATTTCCGGAGTCACCTAGTGCAG”, the binding signal falls from 4410 fluorescence intensity (a.u.) to 3340 fluorescence intensity (a.u.).

First: ATTGACATAGGCCAAAAGGGCAGCGTGGTGACGCGGTCGACGGAGTCACCTAGTGCAG
Second: TATCCTTGAGGGATTCCATTACAAATCTGACGCAACCAATCGGAGTCACCTAGTGCAG
The binding signal of the first is higher: 5330 fluorescence intensity (a.u.) for the first, 4560 fluorescence intensity (a.u.) for the second.

Compared with “AGCCAGTTAATTATGACATCACAACCCATCTAAACACATACGGAGTCACCTAGTGCAG”, “GCATGTGTGCTGTAGTGCTCGTCTTTCCGTCTCCTCCATCCGGAGTCACCTAGTGCAG” is higher in binding signal: 4400 fluorescence intensity (a.u.) for the first, 21700 fluorescence intensity (a.u.) for the second.

First: CTTGTATTTTATACACGATGAGCGCAGGCCAACGCATTGCCGGAGTCACCTAGTGCAG
Second: ATTACTCCGTACGCAGCATTCTCCCTCGTGTCATTTTCGTCGGAGTCACCTAGTGCAG
The binding signal of the first is lower: 3490 fluorescence intensity (a.u.) for the first, 4540 fluorescence intensity (a.u.) for the second.

First: CGCGTCGACGGCGGGGATGGGGACGGGTTGGTTGATCTTTCGGAGTCACCTAGTGCAG
Second: CACTGCTATCACTATACAACAGCTACTGCTACTATACTAGCGGAGTCACCTAGTGCAG
The binding signal of the first is higher: 4450 fluorescence intensity (a.u.) for the first, 4400 fluorescence intensity (a.u.) for the second.

Reference: paper PMC7819943, “Rice protein-binding microarrays: a tool to detect cis-acting elements near promoter regions in rice”
